PubChem BioAssay AID686937 | Drosophila RNAi Screening Center, 2013
Screen: 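Genes in the fly needed for secretion of protein constitutively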 (primary screen). Cells: Drosophila S2 cells expressing secreted horseradish peroxidase. Reagent: long dsRNA against Drosophila genes. Time to read-out: about 5.5 days (5 days dsRNA, then 12 h reporter induction). Challenge: reporter expression induced after 5 days of dsRNA, read 12 h later; inducer not stated. Read-out: 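After 5 days of dsRNA and 12 h of reporter induction, medium peroxidase read by chemiluminescence and scored as per-plate z-score; higher values mean more reporter released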. Scale: z-score: higher = more reporter secreted into medium.
In all, the deposit lists about 23,000 reagents; below is a random part of those with a known target gene and a result. 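Reduced-secretion tags in replicate 1 do not always agree with the z-scores; no criterion for assigning the tags was given.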 Reagents against one gene are numbered here. Not stated in the record: the amount of reagent.

z-score, replicate 1	z-score, replicate 2	z-score, replicate 3	z-score, replicate 4	phenotype, replicate 1	gene	dsRNA no.
0.09	0.28				Ktch	1
0.42	0.33				CG6638	1
0.27	0.23				kar	1
-0.12	-0.1				Cdk8	1
0.33	0.48				CG4815	1
0.13	0.26				CG13308	1
0.32	-0.55				fend	1
0.4	0.23				fend	2
0.2	-0.08				CG31031 (retired record)	1
0.4	0.22				dbo	1
-0.12	0.05				Slbp	1
0.21	0.16				CG42445	1
0.34	0.23				CG33125	1
-0.41	-0.02				CG42841	1
-4.99	-5.32			reduced secretion	Sec61alpha	1
0.01	0.03				CG31704	1
0.14	0.39				gom	1
0.43	0.6				tei	1
-0.08	0.2				RfC3	1
0.18	0.34				CG15014	1
-1.33	-0.45				fau	1
0.35	0.35				fau	2
0.35	0.27				fau	3
0.22	-0.5				fau	4
0.27	0.38	0.61	0.25		fau	5
-0.87	-0.13				fau	6
-0.57	-1.19				Ankle2	1
0.41	0.38				Ankle2	2
0.12	0.25	0.69	0.32		SmydA-4	1
0.74	-0.08				SmydA-4	2
-0.55	-0.55				vers	1
0.15	0.36				sofe	1
-2.77	-4.97			reduced secretion	TfIIB	1
-0.01	-0.19				bru2	1
-1.7	-1.39			reduced secretion	bru2	2
0.26	-0.29				bru2	3
-0.19	-0.05				bru2	4
-2.7	-2.79			reduced secretion	bru2	5
0.31	0.28				CG14406	1
0.23	0.04				CG31525	1
0.05	0.03				CG7912	1
0.19	-0.02				CG30183	1
0.18	-0.13				CG30183	2
-4.12	-4.26			reduced secretion	SmE	1
0.27	-0.01				CG14667	1
0.4	0.52				ph-p	1
0.29	0.19				CG13984	1
0.18	0.31				lncRNA:CR43434	1
0.32	0.27				CG31802	1

The list goes on, starting with the last 11 of the part before.
z-score, replicate 1	z-score, replicate 2	z-score, replicate 3	z-score, replicate 4	phenotype, replicate 1	gene	dsRNA no.
0.31	0.28				CG14406	1
0.23	0.04				CG31525	1
0.05	0.03				CG7912	1
0.19	-0.02				CG30183	1
0.18	-0.13				CG30183	2
-4.12	-4.26			reduced secretion	SmE	1
0.27	-0.01				CG14667	1
0.4	0.52				ph-p	1
0.29	0.19				CG13984	1
0.18	0.31				lncRNA:CR43434	1
0.32	0.27				CG31802	1
0.33	0.27				CG12880	1
0.21	0.03				Tailor	1
0.38	0.26				Prestin	1
0.18	0.13				CG3552	1
0.37	0.14				CG3687	1
-3.76	0.02			reduced secretion	CG7079	1
0.25	0.14				shop	1
0.39	0.4				Spn28F	1
0.31	-0.48				gpp	1
0.64	0.74				gpp	2
0.26	0.25				SerRS-m	1
0.15	0.11				CG4301	1
-0.09	0.08				CG43254	1
0.36	0.35				CG9205	1
0.09	0.32				CG1635	1
0.26	0.58				udd	1
-1.33	-1.64				atms	1
-0.32	-0.17				vir-1	1
-0.34	0.12				vir-1	2
0.22	0.32				CG7295	1
-0.3					CG30356	1
0.29	0.37				CG33232 (retired record)	1
0.48	-0.06				CG33232 (retired record)	2
0.39	0.31				CG31099	1
-0.21	0.33				edin	1
0.31	0.47				CG3009	1
0.41	0.26				eEF1beta	1
0.12	0.32				CG10089	1
0.21	0.36				CG10089	2
-1.83	0			reduced secretion	brwl	1
0.07	0.16				brwl	2
0.28	-0.13				twf	1
0.16	0.42				ttk	1
0.6	0.54				ttk	2
